Results taken from article PMC3814616, “BRAF inhibitors suppress apoptosis through off-target inhibition of JNK signaling” (eLife, 2013).

Assays:
[1] = tested on: HRAS^G12V-transformed HaCaT cells (SCR, TKD); experiment: Soft agar colony formation; assay type: cell-based, human
[2] = tested on: E1A and HRAS^G12V-transformed wild-type (WT) MEFs; experiment: Soft agar colony formation; assay type: cell-based, mouse
[3] = MEF and HaCaT experiments combined

In the case of `CCCS(=O)(=O)Nc1ccc(F)c(C(=O)c2c[nH]c3ncc(Cl)cc23)c1F` [PLX4720], the “effect of JNK pathway inhibition, share of total colony formation advantage” value ([1]; 1.0 μM, TKD vs SCR HaCaT) is reported as 17.6%, the “contribution of JNK inhibition to total effect of accelerated colony formation” value [1, 3] is reported as 17.6–40% and the “effect of paradoxical ERK activation, share of total colony growth advantage” value ([2]; 1.0 μM, WT vs Craf−/− MEFs) is reported as 60%. For the same compound, the “contribution of paradoxical ERK activation to total effects on tumor growth” value [2, 3] was 60–82.4%.
